In the supplement of paper PMC6078165:

Test system: MDAMB231
Experiment: relative JC-1 red fluorescence (viability) vs pre-drug, coculture with fibroblast (fraction); higher = more viable cancer cells
Procedure: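 JC-1 labelled TNBC cells cocultured 1:1 (1,500 cells each) with CellTrace Violet stained primary or stromal fibroblasts in 384-well plates in FluoroBrite medium, treated with one of 42 anticancer drugs at 0.1, 1, 10 or 100 uM. JC-1 red fluorescence (mitochondrial integrity in cancer cells only) was read by plate reader every 8 h for 72 h. Values are normalised to each well's pre-drug value. The stock of one drug was tenfold lower, so its dose labels may be too high.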

CC/C(=C(\c1ccccc1)c1ccc(OCCN(C)C)cc1)c1ccccc1 [Tamoxifen]
relative JC-1 red fluorescence
Details | 8 h | 16 h | 24 h | 32 h | 40 h | 48 h | 56 h | 64 h | 72 h
0.1 µM, coculture fibroblast: C12385 | 0.7856 ± 0.0025 | 0.703 ± 0.0041 | 0.68 ± 0.0088 | 0.605 ± 0.031 | 0.551 ± 0.014 | 0.527 ± 0.008 | 0.481 ± 0.0067 | 0.4768 ± 0.0034 | 0.4583 ± 0.0013
0.1 µM, coculture fibroblast: H6013 | 0.9104 ± 0.0072 | 0.8 ± 0.03 | 0.753 ± 0.032 | 0.736 ± 0.039 | 0.687 ± 0.059 | 0.661 ± 0.083 | 0.648 ± 0.093 | 0.636 ± 0.09 | 0.598 ± 0.086
0.1 µM, coculture fibroblast: H6019 | 0.755 ± 0.02 | 0.664 ± 0.019 | 0.64 ± 0.03 | 0.592 ± 0.035 | 0.537 ± 0.026 | 0.517 ± 0.035 | 0.478 ± 0.033 | 0.471 ± 0.025 | 0.431 ± 0.029
0.1 µM, coculture fibroblast: H6076 | 0.86626 ± 0.00012 | 0.772 ± 0.025 | 0.735 ± 0.049 | 0.719 ± 0.064 | 0.696 ± 0.08 | 0.677 ± 0.1 | 0.66 ± 0.13 | 0.653 ± 0.13 | 0.651 ± 0.13
0.1 µM, coculture fibroblast: H6231 | 0.9297 ± 0.004 | 0.8415 ± 0.0034 | 0.75057 ± 5.4e-05 | 0.715 ± 0.024 | 0.664 ± 0.032 | 0.632 ± 0.054 | 0.588 ± 0.085 | 0.563 ± 0.095 | 0.544 ± 0.11
0.1 µM, coculture fibroblast: HADF | 0.8862 ± 0.00034 | 0.8136 ± 0.0044 | 0.762 ± 0.014 | 0.731 ± 0.013 | 0.679 ± 0.02 | 0.639 ± 0.028 | 0.618 ± 0.028 | 0.596 ± 0.02 | 0.546 ± 0.019
0.1 µM, coculture fibroblast: HCFa | 0.8856 ± 0.0082 | 0.795 ± 0.011 | 0.7504 ± 0.0043 | 0.709 ± 0.014 | 0.655 ± 0.0081 | 0.598 ± 0.015 | 0.5699 ± 0.0049 | 0.532 ± 0.0059 | 0.4834 ± 0.0024
0.1 µM, coculture fibroblast: HCPF | 0.874 ± 0.024 | 0.793 ± 0.041 | 0.724 ± 0.073 | 0.719 ± 0.069 | 0.679 ± 0.079 | 0.643 ± 0.078 | 0.609 ± 0.095 | 0.587 ± 0.089 | 0.569 ± 0.092
0.1 µM, coculture fibroblast: HHSteC | 0.9212 ± 0.0091 | 0.861 ± 0.031 | 0.813 ± 0.036 | 0.773 ± 0.046 | 0.722 ± 0.054 | 0.7 ± 0.063 | 0.661 ± 0.071 | 0.631 ± 0.079 | 0.596 ± 0.073
0.1 µM, coculture fibroblast: HMF | 0.8911 ± 0.0063 | 0.783 ± 0.0092 | 0.682 ± 0.024 | 0.642 ± 0.022 | 0.579 ± 0.0095 | 0.544 ± 0.01 | 0.4961 ± 0.0044 | 0.4709 ± 0.0018 | 0.4428 ± 0.0031
0.1 µM, coculture fibroblast: HPFa | 0.9529 ± 0.0031 | 0.891 ± 0.011 | 0.829 ± 0.0088 | 0.772 ± 0.013 | 0.741 ± 0.02 | 0.684 ± 0.029 | 0.622 ± 0.021 | 0.578 ± 0.016 | 0.523 ± 0.017
0.1 µM, coculture fibroblast: HUF | 0.873 ± 0.012 | 0.771 ± 0.033 | 0.755 ± 0.042 | 0.644 ± 0.066 | 0.582 ± 0.076 | 0.547 ± 0.082 | 0.497 ± 0.085 | 0.485 ± 0.079 | 0.452 ± 0.085
0.1 µM, coculture fibroblast: Hs5 | 0.8671 ± 0.0082 | 0.771 ± 0.031 | 0.728 ± 0.017 | 0.682 ± 0.011 | 0.6387 ± 0.0017 | 0.5908 ± 0.0045 | 0.544 ± 0.0079 | 0.518 ± 0.0086 | 0.487 ± 0.017
0.1 µM, coculture fibroblast: Hs27A | 0.86709 ± 0.00046 | 0.8063 ± 0.0031 | 0.75514 ± 0.00056 | 0.7349 ± 0.0066 | 0.678 ± 0.015 | 0.618 ± 0.026 | 0.613 ± 0.017 | 0.587 ± 0.023 | 0.53 ± 0.02
0.1 µM, coculture fibroblast: Hs343T | 0.902 ± 0.054 | 0.797 ± 0.095 | 0.717 ± 0.14 | 0.684 ± 0.15 | 0.646 ± 0.17 | 0.607 ± 0.18 | 0.557 ± 0.19 | 0.54 ± 0.2 | 0.521 ± 0.2
0.1 µM, coculture fibroblast: WS1 | 0.756 ± 0.0083 | 0.649 ± 0.019 | 0.598 ± 0.027 | 0.536 ± 0.0056 | 0.478 ± 0.019 | 0.449 ± 0.019 | 0.391 ± 0.035 | 0.378 ± 0.037 | 0.355 ± 0.043
1 µM, coculture fibroblast: C12385 | 0.7847 ± 0.0064 | 0.7385 ± 0.0032 | 0.741 ± 0.018 | 0.6842 ± 0.0048 | 0.604 ± 0.022 | – | – | – | –
1 µM, coculture fibroblast: H6013 | 0.908 ± 0.029 | 0.826 ± 0.04 | 0.79 ± 0.039 | 0.76 ± 0.036 | 0.718 ± 0.038 | – | – | – | –
1 µM, coculture fibroblast: H6019 | 0.773 ± 0.067 | 0.753 ± 0.059 | 0.728 ± 0.059 | 0.689 ± 0.057 | 0.648 ± 0.07 | – | – | – | –
1 µM, coculture fibroblast: H6076 | 0.865 ± 0.022 | 0.799 ± 0.011 | 0.78175 ± 0.0006 | 0.7621 ± 0.0052 | 0.721 ± 0.02 | – | – | – | –
1 µM, coculture fibroblast: H6231 | 0.906 ± 0.042 | 0.833 ± 0.075 | 0.793 ± 0.093 | 0.763 ± 0.094 | 0.715 ± 0.1 | – | – | – | –
1 µM, coculture fibroblast: HADF | 0.8804 ± 0.008 | 0.828 ± 0.013 | 0.792 ± 0.0092 | 0.7521 ± 0.0055 | 0.7235 ± 0.0065 | – | – | – | –
1 µM, coculture fibroblast: HCFa | 0.915 ± 0.0097 | 0.8585 ± 0.0085 | 0.831 ± 0.026 | 0.81 ± 0.026 | 0.752 ± 0.031 | – | – | – | –
1 µM, coculture fibroblast: HCPF | 0.888 ± 0.013 | 0.791 ± 0.026 | 0.771 ± 0.036 | 0.752 ± 0.03 | 0.704 ± 0.032 | – | – | – | –
1 µM, coculture fibroblast: HHSteC | 0.9278 ± 0.0025 | 0.8954 ± 0.0047 | 0.8625 ± 0.0014 | 0.8374 ± 0.0065 | – | – | – | – | –
1 µM, coculture fibroblast: HMF | 0.877 ± 0.022 | 0.795 ± 0.025 | 0.7777 ± 0.00096 | 0.7468 ± 0.0012 | – | – | – | – | –
1 µM, coculture fibroblast: HPFa | 0.967 ± 0.013 | 0.91825 ± 2.9e-05 | 0.89 ± 0.0095 | 0.8375 ± 0.0029 | – | – | – | – | –
1 µM, coculture fibroblast: HUF | 0.882 ± 0.0088 | 0.8 ± 0.028 | 0.821 ± 0.038 | 0.708 ± 0.028 | – | – | – | – | –
1 µM, coculture fibroblast: Hs5 | 0.8981 ± 0.0082 | 0.85 ± 0.017 | 0.799 ± 0.037 | 0.767 ± 0.027 | – | – | – | – | –
1 µM, coculture fibroblast: Hs27A | 0.8985 ± 0.0021 | 0.8459 ± 0.0049 | 0.805 ± 0.016 | 0.776 ± 0.021 | – | – | – | – | –
1 µM, coculture fibroblast: Hs343T | 0.899 ± 0.05 | 0.795 ± 0.071 | 0.756 ± 0.061 | 0.728 ± 0.048 | – | – | – | – | –
1 µM, coculture fibroblast: WS1 | 0.768 ± 0.0094 | 0.713 ± 0.0077 | 0.689 ± 0.014 | 0.608 ± 0.016 | – | – | – | – | –

± gives the standard deviation of the averaged measurements. The reference is the same well before dosing, and untreated signal decays as well.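 Fibroblast labels denote human fibroblasts, mainly primary ones from uterus (C12385, HUF), lung (H6013), bone (Hs27A), adrenal (HADF) and skin (WS1), plus mammary HMF and breast cancer-associated Hs343T. Cancer cells are basal-like or mesenchymal-like triple-negative breast cancer lines. A hit is a response shift exceeding 3x replicate standard deviation. The tissue of the other fibroblasts is not given here.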
